## Library screen at single concentrations

Data taken from ChEMBL document CHEMBL3988442, “University of Dundee, Small-Polar-MMV Screening Library” (2021).

Mtb glucose medium: 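Phenotypic screen: M. tuberculosis growth, glucose 7H9 medium, 3 days; the read-out is not stated. Concentration: 500 µM. Direction is inferred from retests: higher values go with more growth inhibition. About 18,000 compounds were tested under these conditions; 7.9% (about 1,400) showed 50% or more at least once.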
Mtb cholesterol medium: 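Whole-cell growth test on Mycobacterium tuberculosis, read after 4 days in a medium based on cholesterol and the lipid DPPC; the read-out is not stated. Concentration: 500 µM. Higher reads as more growth inhibition (inferred: compounds with an IC50 in retests scored well above the rest). Of about 18,000 compounds tested this way, about 900 (5%) reached 50% or more in at least one test.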

Values are the deposited “Percent Effect”, in %.
The controls that fix the scale are not given in the record; negative values are as filed.
The compounds are a random part of those screened.

| SMILES | Mtb glucose medium | Mtb cholesterol medium |
|---|---|---|
| `O=C(C1CCCN(C2CCNCC2)C1)N1CCCC1` (stereo not drawn) | -5.675 | -2.613 |
| `COCCC(=O)NC(c1ccc(F)cc1)C(F)(F)F` (stereo not drawn) | 35.71 | 20.09 |
| `CC(C)(N)c1ccc(F)c(F)c1` | 2.15 | -4.943 |
| `Cc1nc(C(F)(F)F)ccc1C(=O)NCCS(C)(=O)=O` | -3.443 | 1.661 |
| `Cn1ccnc1CN1CCN(Cc2ccoc2)CC1` | -15.45 | -5.399 |
| `Cc1ccc(S(=O)(=O)CC(=O)NCc2ccco2)cc1` | 36.25 | 38.72 |
| `CC(C)CC(CNc1ccc2nnnn2n1)N(C)C` (stereo not drawn) | -0.8618 | -8.484 |
| `CN(C)S(=O)(=O)N(C1CCCC1)C1CC1` | 16.01 | 9.786 |
| `CCNC(=O)CCc1ccc(S(=O)(=O)NC2CC2)cc1` | 36.14 | -15.25 |
| `CS(=O)(=O)N[C@@H]1CCCC[C@H]1N` | -1.775 | -5.715 |
| `NCCc1ccc(C(F)(F)F)cn1` | 28.12 | 23.18 |
| `NCC1CCOc2ccccc21` (stereo not drawn) | 28.58 | 18.92 |
| `O=C1NCC(C(=O)NCc2cc(F)cc(Br)c2)N1` (stereo not drawn) | 12.82 | 5.898 |
| `NC(CCCO)Cc1ccccc1` (stereo not drawn) | 16.81 | 5.858 |
| `CCc1nc(CSc2ncnn2C)no1` | -3.744 | -9.623 |
| `CCC(=O)NCc1ccccc1CN1CCCC1CO` (stereo not drawn) | -1.966 | -9.165 |
| `Cc1cc(C(=O)NC(C)C)[nH]n1` | -7.843 | -21.27 |
| `N#Cc1ccccc1OCc1ccc(C(N)=O)o1` | 16.11 | 34.13 |
| `CN1CC(CO)C2(CCNCC2)C1` (stereo not drawn) | -1.124 | -0.2863 |
| `O=C(NCC1(CO)CCOCC1)c1n[nH]c2c1CCC2` | 4.664 | -4.837 |
| `CC(C)(CO)NCc1ccc2c(c1)OCO2` | -2.988 | 4.957 |
| `COCCN(C)CCNC(=O)c1ccccc1OC` | 10.27 | 19.16 |
| `C[C@@]1(O)CCN(Cc2cncn2C2CCCC2)C[C@@H]1O` | -2.864 | -1.144 |
| `Cc1n[nH]c(C)c1-c1cncc(C(=O)N2CCCC2)n1` | 3.791 | 0.5886 |
| `Cc1nonc1CC(=O)N1CC[C@H]2CNC[C@H]21` | 9.538 | -0.1966 |
| `CNC(=O)CCN(C)c1cc(C(C)C)nc2ccnn12` | 25.88 | 25.98 |
| `CC(C)[C@H](N)C(=O)N1Cc2ccccc2C1` | 20.02 | -2.113 |
| `Cc1occc1CN` | 0.9872 | 4.086 |
| `Nc1nnc(SCC(=O)OCc2ccc(F)cc2)s1` | 8.397 | -8.685 |
| `Cc1nc(CN2CCN(C(=O)c3cnc[nH]3)CC2)cs1` | 13.33 | 10.01 |
| `CCn1nc(C)c(CN2CCCCC(N)C2)c1C` (stereo not drawn) | 3.721 | -0.6542 |
| `COCCNCc1scnc1C` | 11.33 | 0.4757 |
| `N#CCCCNCc1ccccc1` | 6.431 | -4.971 |
| `COc1ccc(NC(=O)NCCCN2CCCC2)cc1` | 22.13 | 9.765 |
| `CC(C)c1nnc(CN[C@H](CO)C(C)C)o1` | 12.2 | 1.397 |
| `COCc1nn(Cc2sc(C)nc2C)c(=O)o1` | 7.616 | 2.316 |
| `O=S(=O)(NC1CCCC1)C1CCOCC1` | -3.36 | -12.89 |
| `CC(C(=O)NC1CC1)N1CCNCC1` (stereo not drawn) | -5.397 | -8.229 |
| `CN1C(=O)Cc2cc(NC(=O)c3cccn3C)ccc21` | 2.338 | -7.208 |
| `NC(=O)NC(=O)CSc1nncs1` | 6.287 | 8.043 |
| `NC(c1ccccc1)C1(CO)CCCC1` (stereo not drawn) | 33.5 | 23.78 |
| `CSCCC(NC(N)=O)C(=O)NCc1ccc(Cl)cc1` (stereo not drawn) | 30.27 | -1.413 |
| `Nc1nc(CCCNC(=O)c2n[nH]c3c2CCC3)cs1` | 40.64 | 3.711 |
| `NC(=O)C1Cc2ccccc2CN1Cc1ccccn1` (stereo not drawn) | 14.66 | 2.12 |
| `CC(C)(C)NC(=O)N1CCNCC1` | 5.265 | 8.868 |
| `CS(=O)(=O)CCNC(=O)CCN1CCCCCCC1` | 6.77 | 10.79 |
| `CNS(=O)(=O)c1ccc(F)c(C)c1` | 24 | 0.4474 |
| `CS(=O)(=O)N1CCCC(C(=O)NC2CC2)C1` (stereo not drawn) | -3.149 | -12.59 |
| `CCC(N)(CO)c1ccccc1` (stereo not drawn) | -0.5012 | -1.462 |
| `CC1CCCN(c2nc(C(=O)N3CCOCC3)cs2)C1` (stereo not drawn) | 64.78 | 48.88 |
| `Nc1ncn(-c2ncccc2F)n1` | 1.693 | -2.923 |
| `NCc1c(O)ccc2ccccc12` | 27.34 | 25.93 |
| `COC(=O)C1(NC(=O)c2ccco2)CCCCC1` | 10.22 | 11.93 |
| `CC(C)(C)C1=CCN(CCN)CC1` | 22.61 | 7.462 |
| `Cc1cnn(CCNC(=O)CCS(=O)(=O)CC(C)C)c1` | -4.384 | -14.22 |
| `COCC(C)Nc1cccc(F)c1C#N` (stereo not drawn) | 46.62 | 56.83 |
| `Cc1n[nH]cc1CNCC(=O)NC(C)(C)C` | 7.504 | 3.149 |
| `O=C(CN1CSCC1=O)NC1CC1` | 6.775 | -5.149 |
| `CN1CCC(CCC(=O)NC2CC2)CC1` | 2.721 | 5.828 |
| `CCN1CCN(CCOc2cccc(C(C)=O)c2)CC1` | -15.35 | -9.294 |
| `C(=C\c1ccco1)/CN1CCOCC1` | 5.33 | 13.28 |
| `CC(C)C(=O)NCc1ccnc(-n2cccn2)c1` | 47.2 | 20.56 |
| `CC[C@@H](CO)NCc1cnn(-c2ccc(F)cc2)c1` | 26.35 | 13.79 |
| `CC(C)CC(=O)NC(C(=O)NC1=NCCS1)C(C)C` (stereo not drawn) | 14.62 | 6.688 |
| `CCCn1cnnc1CNC(=O)Cn1nc(C)cc1N` | 4.623 | 1.586 |
| `O=S(=O)(NCCN1CCCC1)c1c(F)cccc1F` | 14.83 | -0.765 |
| `CN1CCCCC1CC(=O)NCc1ccc(C#N)cc1` (stereo not drawn) | 4.093 | 58.39 |
| `CCC(Cn1ccnc1)NC(=O)c1cc(CO)ccn1` (stereo not drawn) | 14.08 | 3.6 |

For reference, 6 entries once more:

Cc1ccc(S(=O)(=O)CC(=O)NCc2ccco2)cc1 gave Mtb glucose medium: 36.25%; Mtb cholesterol medium: 38.72%.
CCCn1cnnc1CNC(=O)Cn1nc(C)cc1N gave Mtb glucose medium: 4.623%; Mtb cholesterol medium: 1.586%.
CN1CCC(CCC(=O)NC2CC2)CC1 gave Mtb glucose medium: 2.721%; Mtb cholesterol medium: 5.828%.
O=C(C1CCCN(C2CCNCC2)C1)N1CCCC1 (stereo not drawn) gave Mtb glucose medium: -5.675%; Mtb cholesterol medium: -2.613%.
CNC(=O)CCN(C)c1cc(C(C)C)nc2ccnn12 gave Mtb glucose medium: 25.88%; Mtb cholesterol medium: 25.98%.
Nc1nnc(SCC(=O)OCc2ccc(F)cc2)s1 gave Mtb glucose medium: 8.397%; Mtb cholesterol medium: -8.685%.